Where two headings read alike, the source gives them in different places. These are yes or no findings as the source states them, for the method shown. For some of these results: Binding seen in cells or lysates may run through a third protein. Some entries that bind do so weakly or less than the wild type. Sequences can lack the tags named with a protein. Values belong to the molecule of their own block, whether it stands above or below them.
Assays:
[1] = biological target: T1, ROS1a-nLUC (1-509 aa) (Arabidopsis thaliana) (UniProt Q9SJQ6); assay: split reporter
T1 sequence: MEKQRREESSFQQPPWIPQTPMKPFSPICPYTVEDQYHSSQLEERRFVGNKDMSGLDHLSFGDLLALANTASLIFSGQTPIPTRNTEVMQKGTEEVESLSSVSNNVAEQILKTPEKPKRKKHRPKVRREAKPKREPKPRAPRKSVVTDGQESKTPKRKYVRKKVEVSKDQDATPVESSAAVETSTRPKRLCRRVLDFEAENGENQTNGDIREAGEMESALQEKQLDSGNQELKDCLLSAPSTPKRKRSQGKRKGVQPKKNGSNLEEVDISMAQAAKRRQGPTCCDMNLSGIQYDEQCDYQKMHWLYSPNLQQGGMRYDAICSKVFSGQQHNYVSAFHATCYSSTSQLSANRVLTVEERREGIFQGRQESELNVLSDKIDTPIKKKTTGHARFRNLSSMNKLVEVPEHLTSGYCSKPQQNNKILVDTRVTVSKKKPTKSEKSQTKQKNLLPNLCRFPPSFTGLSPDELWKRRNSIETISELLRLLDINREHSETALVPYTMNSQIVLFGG

Chains of the proteins cited; added tags and fusions are not shown.
UniProt P55852: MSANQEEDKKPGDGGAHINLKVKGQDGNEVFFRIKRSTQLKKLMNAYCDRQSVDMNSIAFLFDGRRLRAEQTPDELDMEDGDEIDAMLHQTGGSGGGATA

[2] = biological target: T2, ROS1b-nLUC (510-1393 aa) (Arabidopsis thaliana) (UniProt Q9SJQ6); assay: split reporter
T2 sequence: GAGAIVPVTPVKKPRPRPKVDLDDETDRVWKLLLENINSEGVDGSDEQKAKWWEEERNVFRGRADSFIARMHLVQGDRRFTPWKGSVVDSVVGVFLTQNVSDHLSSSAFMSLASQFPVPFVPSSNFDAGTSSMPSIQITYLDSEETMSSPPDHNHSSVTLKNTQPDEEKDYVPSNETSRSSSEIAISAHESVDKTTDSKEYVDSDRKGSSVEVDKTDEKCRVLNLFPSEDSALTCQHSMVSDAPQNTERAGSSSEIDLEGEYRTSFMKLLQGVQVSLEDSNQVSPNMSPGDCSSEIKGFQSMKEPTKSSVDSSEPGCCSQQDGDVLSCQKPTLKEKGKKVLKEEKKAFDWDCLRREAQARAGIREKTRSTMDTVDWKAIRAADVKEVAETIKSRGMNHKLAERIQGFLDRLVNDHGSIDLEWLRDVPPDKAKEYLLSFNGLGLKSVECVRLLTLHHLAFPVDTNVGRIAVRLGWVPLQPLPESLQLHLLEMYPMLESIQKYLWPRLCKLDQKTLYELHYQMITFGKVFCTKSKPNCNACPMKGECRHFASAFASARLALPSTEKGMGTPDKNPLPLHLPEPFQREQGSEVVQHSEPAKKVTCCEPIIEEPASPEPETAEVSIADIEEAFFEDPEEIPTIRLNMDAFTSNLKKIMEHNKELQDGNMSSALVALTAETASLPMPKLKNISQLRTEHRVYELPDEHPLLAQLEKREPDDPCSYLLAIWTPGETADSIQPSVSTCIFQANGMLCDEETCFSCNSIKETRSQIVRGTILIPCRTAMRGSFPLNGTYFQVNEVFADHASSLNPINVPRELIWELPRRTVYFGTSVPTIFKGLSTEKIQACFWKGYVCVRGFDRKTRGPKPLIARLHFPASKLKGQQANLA

[3] = biological target: T3, ROS1-nLUC (Arabidopsis thaliana) (UniProt Q9SJQ6); assay: split reporter
T3 sequence: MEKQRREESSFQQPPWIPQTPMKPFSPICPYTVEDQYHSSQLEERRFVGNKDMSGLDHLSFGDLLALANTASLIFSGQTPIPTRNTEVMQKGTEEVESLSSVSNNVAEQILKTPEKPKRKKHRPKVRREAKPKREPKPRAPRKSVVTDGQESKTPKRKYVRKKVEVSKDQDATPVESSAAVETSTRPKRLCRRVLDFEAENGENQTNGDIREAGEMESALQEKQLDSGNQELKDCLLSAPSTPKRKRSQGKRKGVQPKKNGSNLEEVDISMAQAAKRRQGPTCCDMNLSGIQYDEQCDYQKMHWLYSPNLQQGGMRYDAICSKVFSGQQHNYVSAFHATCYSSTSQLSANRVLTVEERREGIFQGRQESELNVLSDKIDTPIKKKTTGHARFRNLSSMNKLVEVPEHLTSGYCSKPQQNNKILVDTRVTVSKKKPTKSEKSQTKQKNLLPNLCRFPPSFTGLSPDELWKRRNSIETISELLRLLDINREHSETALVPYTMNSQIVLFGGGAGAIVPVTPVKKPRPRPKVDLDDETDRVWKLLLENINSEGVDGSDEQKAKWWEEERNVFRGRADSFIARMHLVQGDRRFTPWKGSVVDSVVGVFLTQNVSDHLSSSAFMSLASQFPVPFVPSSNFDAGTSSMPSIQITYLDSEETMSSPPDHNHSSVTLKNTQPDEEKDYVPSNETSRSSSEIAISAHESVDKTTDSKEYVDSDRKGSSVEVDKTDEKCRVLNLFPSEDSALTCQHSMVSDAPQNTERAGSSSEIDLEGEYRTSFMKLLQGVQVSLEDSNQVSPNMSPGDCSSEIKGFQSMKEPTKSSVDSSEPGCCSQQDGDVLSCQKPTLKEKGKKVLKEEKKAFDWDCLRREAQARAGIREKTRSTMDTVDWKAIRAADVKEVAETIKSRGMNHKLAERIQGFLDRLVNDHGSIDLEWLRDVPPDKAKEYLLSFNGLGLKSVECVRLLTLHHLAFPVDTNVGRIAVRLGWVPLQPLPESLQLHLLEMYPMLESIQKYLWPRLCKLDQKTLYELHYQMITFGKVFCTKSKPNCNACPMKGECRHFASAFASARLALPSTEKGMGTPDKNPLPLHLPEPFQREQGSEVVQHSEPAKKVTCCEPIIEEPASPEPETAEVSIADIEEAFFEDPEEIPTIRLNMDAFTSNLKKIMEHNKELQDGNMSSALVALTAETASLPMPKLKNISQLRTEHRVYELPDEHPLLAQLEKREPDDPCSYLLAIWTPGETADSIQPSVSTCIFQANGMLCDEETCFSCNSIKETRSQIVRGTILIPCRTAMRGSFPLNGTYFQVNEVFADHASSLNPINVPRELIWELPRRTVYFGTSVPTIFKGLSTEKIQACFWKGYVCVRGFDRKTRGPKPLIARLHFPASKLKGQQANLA

[4] = biological target: T4, ROS1-BD (REPRESSOR OF … 1 fused to the Gal4 binding domain) (Arabidopsis thaliana) (UniProt Q9SJQ6); assay: two-hybrid
T4 sequence: T3 sequence

[5] = biological target: T3, ROS1-nLUC (Arabidopsis thaliana); assay: split reporter; remark: listed apart in the source
[6] = biological target: T5, ROS1-nYFP (Arabidopsis thaliana) (UniProt Q9SJQ6); assay: split reporter
T5 sequence: T3 sequence

[7] = biological target: T6, ROS1-Flag (Arabidopsis thaliana) (UniProt Q9SJQ6); assay: co-IP
T6 sequence: T3 sequence

binding [1]: no binding
binding [2]: binds
binding [3]: binds
Molecule: cLUC-SUMO1 (from UniProt P55852 1-100)

binding [4]: binds
B1: SIZ1-AD (SUMO E3 ligase SIZ1 fused to the Gal4 activation domain) (protein, UniProt Q680Q4 1-884)
chain: MDLEANCKEKLSYFRIKELKDVLTQLGLSKQGKKQELVDRILTLLSDEQAARLLSKKNTVAKEAVAKLVDDTYRKMQVSGASDLASKGQVSSDTSNLKVKGEPEDPFQPEIKVRCVCGNSLETDSMIQCEDPRCHVWQHVGCVILPDKPMDGNPPLPESFYCEICRLTRADPFWVTVAHPLSPVRLTATTIPNDGASTMQSVERTFQITRADKDLLAKPEYDVQAWCMLLNDKVLFRMQWPQYADLQVNGVPVRAINRPGGQLLGVNGRDDGPIITSCIRDGVNRISLSGGDVRIFCFGVRLVKRRTLQQVLNLIPEEGKGETFEDALARVRRCIGGGGGDDNADSDSDIEVVADFFGVNLRCPMSGSRIKVAGRFLPCVHMGCFDLDVFVELNQRSRKWQCPICLKNYSVEHVIVDPYFNRITSKMKHCDEEVTEIEVKPDGSWRVKFKRESERRELGELSQWHAPDGSLCPSAVDIKRKMEMLPVKQEGYSDGPAPLKLGIRKNRNGIWEVSKPNTNGLSSSNRQEKVGYQEKNIIPMSSSATGSGRDGDDASVNQDAIGTFDFVANGMELDSISMNVDSGYNFPDRNQSGEGGNNEVIVLSDSDDENDLVITPGPAYSGCQTDGGLTFPLNPPGIINSYNEDPHSIAGGSSGLGLFNDDDEFDTPLWSFPSETPEAPGFQLFRSDADVSGGLVGLHHHSPLNCSPEINGGYTMAPETSMASVPVVPGSTGRSEANDGLVDNPLAFGRDDPSLQIFLPTKPDASAQSGFKNQADMSNGLRSEDWISLRLGDSASGNHGDPATTNGINSSHQMSTREGSMDTTTETASLLLGMNDSRQDKAKKQRSDNPFSFPRQKRSNNEQDHQTRHRSLNKICIILCAGKN

binding [5]: binds
B2: cLUC-SIZ1 (protein, UniProt Q680Q4 1-884)
chain: B1 chain

binding [6]: binds
B3: SIZ1-cYFP (protein, UniProt Q680Q4 1-884)
chain: B1 chain

binding [7]: binds
B4: HA-SIZ1 (protein, UniProt Q680Q4 1-884)
chain: B1 chain
